Reference: publication PMC9174161
No constants are given. Whether binding was seen depends on the method and setting. In cells and extracts the contact can be indirect. Some binding calls cover weakened binding; strength is not graded here.

Amino acid sequences for entries named in this document (tags omitted).
UniProt Q06710: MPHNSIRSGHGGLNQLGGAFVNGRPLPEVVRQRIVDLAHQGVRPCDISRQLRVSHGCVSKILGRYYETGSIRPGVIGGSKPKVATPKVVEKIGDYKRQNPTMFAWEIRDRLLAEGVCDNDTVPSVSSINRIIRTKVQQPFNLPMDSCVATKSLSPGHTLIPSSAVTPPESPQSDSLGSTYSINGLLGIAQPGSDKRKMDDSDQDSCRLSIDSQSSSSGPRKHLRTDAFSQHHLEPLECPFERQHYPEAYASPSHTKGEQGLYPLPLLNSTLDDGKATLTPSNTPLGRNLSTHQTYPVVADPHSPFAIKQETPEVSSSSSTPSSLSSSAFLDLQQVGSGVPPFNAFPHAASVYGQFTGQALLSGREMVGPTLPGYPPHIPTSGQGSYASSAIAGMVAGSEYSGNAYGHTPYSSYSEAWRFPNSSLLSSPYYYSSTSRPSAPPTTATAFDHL
UniProt P17844: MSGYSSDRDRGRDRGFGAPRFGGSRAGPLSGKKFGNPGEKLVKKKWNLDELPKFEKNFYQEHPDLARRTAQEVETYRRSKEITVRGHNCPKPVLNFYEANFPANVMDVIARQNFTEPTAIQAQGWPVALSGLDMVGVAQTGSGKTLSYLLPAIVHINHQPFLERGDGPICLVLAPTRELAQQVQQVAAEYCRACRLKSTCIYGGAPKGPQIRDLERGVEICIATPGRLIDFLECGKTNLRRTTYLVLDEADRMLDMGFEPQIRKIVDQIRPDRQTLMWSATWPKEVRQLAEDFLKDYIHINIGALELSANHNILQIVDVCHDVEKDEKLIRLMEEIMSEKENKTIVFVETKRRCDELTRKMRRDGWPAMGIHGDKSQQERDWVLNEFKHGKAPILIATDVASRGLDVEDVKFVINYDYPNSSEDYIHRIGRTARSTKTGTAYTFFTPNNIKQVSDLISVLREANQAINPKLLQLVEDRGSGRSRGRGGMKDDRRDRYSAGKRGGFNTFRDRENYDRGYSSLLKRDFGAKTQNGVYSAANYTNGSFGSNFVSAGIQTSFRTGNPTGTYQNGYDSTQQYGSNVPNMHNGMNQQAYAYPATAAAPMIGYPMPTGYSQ

Molecular target: HA-tagged PAX8 (Paired box 8) (UniProt Q06710)
Assay: co-IP; 293T cells transfected with HA-PAX8 and GFP-DDX5 plasmids, collected 24 h after transfection; immunoprecipitation on antibody beads, SDS-PAGE and Western blot

In the case of GFP-DDX5 (from UniProt P17844 1-614), the binding is reported as “binds”.
